Assay results: PubChem BioAssay AID1487 (National Center for Advancing Translational Sciences (NCATS), 2009)
The other results are listed elsewhere or left out. Further columns of the screen follow, without active or inactive calls. Compounds called inactive in the main read-out are mostly missing here. Words in brackets tell the shape of the fitted curve; partial curves, single points and poor fits give uncertain potencies.

Experiment: qHTS Assay for Modulators of Lamin A Splicing
Settings: HeLa LMNA splicing GFP/RFP minigene ratio, 48 h
In short: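 Read-out is the ratio of GFP to DsRed2 object intensity, acquired by 488 nm laser-scanning cytometry on HeLa lamin A-EGFP minigene reporter cells. Compound incubation 48 hrs at 37 °C in Opti-MEM with 2% FBS; DMSO 0.5% final.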

[1] = measured here: GFP splicing reporter channel
[2] = measured here: RFP viability control channel

Row | SMILES | AC50 [1] | AC50 [2]
1 | Cc1nnc(NC(=O)CSc2nc3c([nH]c4ccccc43)c(=O)n2-c2ccc(Cl)cc2)s1 | 17.8 µM [falling, single point] | 25.1 µM [falling, single point]
2 | CC(N=c1ccccn1C(=O)Nc1ccc(Cl)cc1)c1ccco1 (centres undefined) | 3.55 µM [falling, single point] | 3.16 µM [falling, partial curve, poor fit]
3 | O=C(Nc1ccccc1)c1ccc(-c2ccc(Br)cc2)o1 |  | 35.5 µM [rising, single point]
4 | Cc1cc(C)c(S(=O)(=O)Nc2cc(SCC(=O)O)c(O)c3ccccc23)cc1C | 35.5 µM [falling, single point] | 
5 | Cc1cc(C)cc(NC(=O)c2cc(S(=O)(=O)NCCC3=CCCCC3)ccc2F)c1 | 35.5 µM [falling, single point] | 0.0251 µM [falling, full curve, poor fit]
6 | Cc1cccc(NC(=S)NCCC(C)C)c1 | 0.178 µM [falling, full curve] | 
7 | CN(CC(=O)Nc1ccccc1N1CCOCC1)S(=O)(=O)c1ccc(Cl)cc1 |  | 17.8 µM [rising, single point]
8 | O=C(Nc1ccccc1C(=O)Nc1ccccn1)c1ccc([N+](=O)[O-])cc1 | 35.5 µM [falling, partial curve] | 35.5 µM [falling, partial curve]
9 | O=C1O[C@@H]([C@@H](O)CO)[C@@H](O)[C@H]1O | 11.2 µM [falling, single point] | 14.1 µM [falling, single point]
10 | CC(=O)Nc1ccc2nc(NC(=O)COc3ccccc3Cl)sc2c1 | 1.26 µM [rising, single point] | 1.26 µM [rising, single point]
11 | CCOC(=O)c1ccc(NC(=O)C2(c3ccc(OC)cc3)CCCC2)cc1 |  | 12.6 µM [rising, partial curve]
12 | COc1ccc(N2CCN(C(c3cccs3)C(C)NS(=O)(=O)c3ccccc3)CC2)cc1 (centres undefined) |  | 14.1 µM [rising, partial curve]
13 | O=C(CCNS(=O)(=O)c1cccc2nsnc12)NCc1ccco1 | 35.5 µM [rising, single point] | 
14 | CCc1ccc(NC(=O)C2CCN(c3nc(-c4ccc(OC)cc4)no3)CC2)cc1 |  | 35.5 µM [rising, single point]
15 | CCOc1ccc2nc(N3CCN(C(=O)c4ccc5c(c4)CCCC5)CC3)sc2c1 | 6.31 µM [falling, partial curve, poor fit] | 2.51 µM [falling, full curve, poor fit]
16 | O=[N+]([O-])c1ccc(/C=N/n2c(CO)nc3ccccc32)s1 |  | 3.98 µM [rising, single point]
17 | COCCCNC(=O)CN(CCc1ccccc1)S(=O)(=O)c1ccccc1 |  | 0.0158 µM [falling, full curve, poor fit]
18 | COc1cc(C(=O)NC(=S)Nc2ccc(N3CCCC3)cc2)cc(OC)c1OC |  | 20 µM [rising, single point]
19 | Cc1ccc(C(=O)NCCc2cccc(Cl)c2)cc1[N+](=O)[O-] | 5.01 µM [rising, single point] | 15.8 µM [rising, partial curve, poor fit]

Row | SMILES | AC50 [1] | AC50 [2]
20 | CCOc1ccccc1OCCn1nnc2ccccc21 |  | 31.6 µM [rising, single point]
21 | O=C(CSc1ncnc2nc[nH]c12)Nc1nnc(SCc2ccc(Cl)c(Cl)c2)s1 |  | 12.6 µM [falling, single point]
22 | CCn1nc(C)c(NC(=O)CC23CC4CC(CC(C4)C2)C3)c1C |  | 17.8 µM [rising, single point]
23 | CCCCc1nn2c(=O)cc(COC(=O)c3ccc(NC(=O)c4ccccc4Cl)cc3)nc2s1 |  | 35.5 µM [falling, single point]
24 | O=C(Nc1nc(-c2ccc(Cl)s2)cs1)c1ccccc1 | 35.5 µM [rising, single point] | 35.5 µM [rising, single point]
25 | CCN(CC)S(=O)(=O)c1ccc(N/N=C/c2cc(OC)c(OC)cc2OC)nc1 |  | 31.6 µM [rising, single point]
26 | Cc1cccc(OCCc2nnc(N)s2)c1C | 15.8 µM [rising, single point] | 
27 | NNc1nc2sc3c(c2c(=O)[nH]1)CCc1ccccc1-3 |  | 7.08 µM [rising, partial curve]
28 | COc1cccc(-c2cncnc2NCc2cccs2)c1 | 20 µM [falling, partial curve] | 12.6 µM [falling, partial curve]
29 | Cc1cccc(N(CC(=O)N2CCN(c3ccc(F)cc3)CC2)S(C)(=O)=O)c1C | 3.16 µM [rising, single point] | 
30 | Cc1ccc(Br)cc1S(=O)(=O)N1CCN(c2ccccc2)CC1 | 35.5 µM [rising, single point] | 
31 | O=C(c1ccccc1)N(Cc1ccc(F)cc1)C1CCS(=O)(=O)C1 (centres undefined) |  | 5.62 µM [rising, single point]
32 | COc1ccc(CSc2nc(CSC)cc(N3CCOCC3)n2)cc1 | 31.6 µM [rising, single point] | 
33 | Cc1cc(C)c2c(N)c(C(=O)c3ccc(Cl)cc3)sc2n1 | 17.8 µM [rising, single point] | 
34 | CCS(=O)(=O)N1Cc2ccccc2CC1C(=O)Nc1nnc(SCc2ccc(C#N)cc2)s1 (centres undefined) | 0.00891 µM [rising, full curve, poor fit] | 25.1 µM [rising, partial curve]
35 | CCOC(=O)c1cc2c(=O)n3ccccc3nc2n(Cc2ccco2)c1=NC(=O)c1cccnc1 |  | 0.562 µM [falling, full curve]
36 | COCCNc1nnc(SCC(=O)Nc2sc3c(c2C(=O)c2ccccc2)CCCC3)s1 | 31.6 µM [rising, single point] | 35.5 µM [rising, single point]
37 | O=C(CSc1nnc(COc2ccc(Cl)cc2)n1Cc1ccco1)c1ccccc1F |  | 3.55 µM [rising, full curve]
38 | COC(=O)c1nc(NC(=O)C(C)C)n[nH]1 |  | 11.2 µM [rising, single point]

Row | SMILES | AC50 [1] | AC50 [2]
39 | Cc1ccc(C)c(S(=O)(=O)N2CCN(Cc3ccc(O)c4ncccc34)CC2)c1 |  | 25.1 µM [rising, single point]
40 | O=C(NCc1ccccc1)NC1(C(=O)N2CCN(c3ccccc3)CC2)CCCCC1 |  | 35.5 µM [rising, single point]
41 | C=CCSc1nnc(CCCCCN2C(=O)c3cccc4cccc(c34)C2=O)o1 | 12.6 µM [rising, partial curve, poor fit] | 15.8 µM [rising, partial curve]
42 | CC(C(=O)Nc1ccc2c(c1)OCCO2)c1ccc([N+](=O)[O-])cc1 (centres undefined) | 1.41 µM [falling, partial curve, poor fit] | 
43 | COc1ccc(CCNS(=O)(=O)c2ccc3c(c2)CC(C)N3C(=O)C2CCC2)cc1OC (centres undefined) | 0.891 µM [falling, full curve, poor fit] | 1 µM [falling, partial curve]
44 | CCOC(=O)c1ccc(N2C(=O)c3n[nH]c(C)c3C2c2ccco2)cc1 (centres undefined) |  | 2.82 µM [rising, single point]
45 | Cc1nn(Cc2ccc(Cl)cc2)c(C)c1NC(=O)C(c1ccccc1)c1ccccc1 |  | 20 µM [rising, partial curve, poor fit]
46 | COc1ccc(-c2nc(C#N)c(N3CCN(c4cccc(Cl)c4)CC3)o2)cc1OC |  | 35.5 µM [rising, single point]
47 | Cc1nnc(-c2ccccc2)c(=O)n1/N=C/c1c(O)ccc2ccccc12 | 3.55 µM [falling, full curve] | 5.62 µM [falling, single point]
48 | CCN(CC)c1ccc(NS(=O)(=O)c2ccc(-c3cnc(C4CC4)o3)cc2)c(C)c1 |  | 10 µM [rising, partial curve]
49 | COc1cc(/C=C/C(=O)c2ccc(NS(=O)(=O)c3ccc(C)cc3)cc2)ccc1OC(F)F | 14.1 µM [falling, single point] | 20 µM [falling, single point]
50 | CC(C)OC(=O)c1cc(-c2ccc(C=O)o2)ccc1Cl |  | 35.5 µM [rising, single point]
51 | CCOc1ccc(CCNC(=O)c2sc3nc4n(c(=O)c3c2C)CCCC4)cc1OCC | 1 µM [rising, full curve, poor fit] | 
52 | O=C(COc1ccc(Cl)cc1Cl)NCc1ccncc1 |  | 12.6 µM [rising, single point]
53 | COc1ccc(-n2c(SCC(=O)Nc3ccc(Cl)c(C)c3)nc3n[nH]c(C)c3c2=N)cc1 | 35.5 µM [falling, single point] | 
54 | C=CCc1cccc(/C=N/NC(=O)CCC(=O)Nc2ccc(C)cc2)c1O |  | 11.2 µM [rising, partial curve, poor fit]
55 | CCCCN(CCCC)S(=O)(=O)c1ccc(NC(=O)c2cccs2)cc1 | 15.8 µM [rising, single point] | 35.5 µM [rising, single point]
56 | O=C(Nc1nc2ccc(S(=O)(=O)N3CCCC3)cc2s1)c1cccc(F)c1 |  | 0.0224 µM [rising, full curve, poor fit]
57 | Cc1cc(C)cc(-n2ccnc2SCC(=O)Nc2nnc(C)s2)c1 |  | 12.6 µM [rising, partial curve]

Of the compounds above, these have a nitro group on carbon:
Row | SMILES | AC50 [1] | AC50 [2]
8 | O=C(Nc1ccccc1C(=O)Nc1ccccn1)c1ccc([N+](=O)[O-])cc1 | 35.5 µM [falling, partial curve] | 35.5 µM [falling, partial curve]
16 | O=[N+]([O-])c1ccc(/C=N/n2c(CO)nc3ccccc32)s1 |  | 3.98 µM [rising, single point]
19 | Cc1ccc(C(=O)NCCc2cccc(Cl)c2)cc1[N+](=O)[O-] | 5.01 µM [rising, single point] | 15.8 µM [rising, partial curve, poor fit]
42 | CC(C(=O)Nc1ccc2c(c1)OCCO2)c1ccc([N+](=O)[O-])cc1 (centres undefined) | 1.41 µM [falling, partial curve, poor fit] | 
